Data reported in doi:10.1101/869123.
Results are given in words; binding and its absence hold for the method and conditions named. A result given as binding can be weak or reduced; the word gives no strength.

Biological target: GST-tagged γ-tubulin (UniProt P23258)
Assay: pull-down

His-tagged CRIPT, bacteria expressed (from UniProt Q9P021 1-101)
binding: binds
